Experimental data published in PubChem BioAssay AID1508600 (Functional Genomics Laboratory (NCATS/FGL), 2020).
Hit rate of the full screen: of about 53,000 sequences, about 3,700 (7%) were called active.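 How the source made its calls: active means gene knockdowns whose robust z-score for IL-1 alpha signal is at least 2 or at most -2, so actives lie on both sides; inactive means the rest.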 This is one part of the list.

experiment: Components of the Cytosolic LPS Sensing Pathway: Gene Identification via Genome-wide siRNA Screen; settings: RAW264.7 macrophages, IL-1a HTRF, actives lie on both sides, screened at 100 nM (by protocol), cells primed 5 h with Pam3CSK4 first;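 further: robust z of the log signal after scaling to non-targeting control siRNA wells of the plate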
Method in brief: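 Read-out: IL-1a HTRF on supernatant, divided by plate negative-control median ×100, log-transformed and converted to robust z-score. Cells were RAW264.7 given 100 nM siRNA, Pam3CSK4-primed 5 hours, then LipidA-transfected 24 hour.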

| Sequence | z-score |
| --- | --- |
| GGAAGAGGUUCAGAACAGATT against Spaca1 | inactive: 1.19 |
| GGUUCUAUUUGUGAAAAGUTT against Adam10 | inactive: 0.783 |
| GGAUGCUGGCUGAUUUUCUTT against Olfr1019 | inactive: 0.368 |
| GGCAACGGAAGAAAAUUAATT against 4930429B21Rik | inactive: -1.26 |
| GGAAUUUGGUCUAUGCUUGTT against Stra6 | inactive: 0.806 |
| GGACGACUGGAAGUUUUCUTT against 5830411N06Rik | active: 3.95 |
| CGACAUGGAGACAAUCUAUTT against Ptges | inactive: -0.249 |
| GGUCAUCCUCAAGUCUCCUTT against Stmn3 | active: -2.28 |
| GGACGAUGAAGACAGCAAGTT against Scn8a | inactive: -0.62 |
| GGUGUUGCUGUGUUUUAUATT against Olfr1259 | inactive: 0.964 |
| GGGAAAAAGAGCUUUUAGCTT against Helt | inactive: -0.552 |
| GCCAGAGAUUCCUCAACGATT against Rpp21 | active: -2.48 |
| GGGUGGUUUUAGUGUACUATT against Mrgpra7 | inactive: -0.548 |
| GGUUCCAAGAGACUGAAAGTT against Hbq1b | inactive: -0.719 |
| GGUUUGUGUCCAGCUGCUUTT against Olfr502 | inactive: 1.24 |
| GGAAUGUUAAUGAUGCAGATT against Nmb | inactive: -0.656 |
| GGGAUUGUGAAUUUCAUGUTT against Gca | inactive: 1.3 |
| CGAUCAACAAGAAAAAGCUTT against Lcp1 | inactive: 0.246 |
| GAGGGUGACCGCUUCAGAATT against Scn4b | inactive: 1.56 |
| CUUUGCUCUACCUUUCAGCTT against Olfr657 | inactive: 1.5 |
| GGCACAUAGCCAUACCAGATT against Fbxw17 | inactive: 0.0511 |
| GGAUUGGCAACCUCCAUUUTT against Kdm5a | inactive: -0.312 |
| GGUAUCCAUGUCAUGCUCUTT against Cyp4a12b | inactive: -1.95 |

Copied from the list:
z-score, GGAUGCUGGCUGAUUUUCUTT against Olfr1019 is entered as inactive: 0.368
z-score, GGAAUUUGGUCUAUGCUUGTT against Stra6 is entered as inactive: 0.806
z-score, CUUUGCUCUACCUUUCAGCTT against Olfr657 is entered as inactive: 1.5

Next entries.

| Sequence | z-score |
| --- | --- |
| GGUAAUGAUACCUUGAAUGTT against H60a | active: 2.11 |
| GGUUCACAGAAUUUAAGUGTT against Clec4a2 | inactive: 0.896 |
| GAUACGAGGAAAUCGUUAATT against Eef1a1 | inactive: 0.419 |
| GGGAUGUUUUGUUUUUAACTT against Mlc1 | inactive: 0.384 |
| GGACUUCAAAUGCUGUGGCTT against Tspan11 | inactive: -1.1 |
| GGGACAGAUCUGAACCUUUTT against Hbegf | inactive: 1.54 |
| GGCAAACAACUGAAUAAGGTT against Pbsn | inactive: -0.611 |
| GGUUUGUCAACAUUGCUGATT against Kdm4a | inactive: 0.203 |
| GAACACCCUGCCGACCAAATT against Tmsb10 | inactive: -0.242 |
| GACCACUUCCUUCUAUGCCTT against Slc35c1 | active: -2.07 |
| GGACAUUGUUGUCCAAACUTT against Sptb | active: -2.24 |
| GGUCUUAUUUUGAAGUGUUTT against Cybb | inactive: 0.013 |
| GGAUGUGCCCGAUAUUCCATT against Gtpbp1 | inactive: 0.853 |
| GCUGGAUCUUUGAAUGAGGTT against Olfr910 | inactive: -1.01 |
| GCUUGUUAUGUCACAUAUCTT against Pdcl3 | inactive: 0.208 |
| GCAGCAUUGACUGAAGAUCTT against Lce1m | inactive: -0.316 |
| GCCUUACCGUCGAGGGUUUTT against Plpp3 | inactive: 1.44 |
| GCAGAAGUAUUACUGGAUGTT against Olfr572 | inactive: 0.841 |
| CCACAUCCUGACUACUACATT against Sumo2 | inactive: -1.14 |
| GGAAAAAGUUGCUCAAAAUTT against Mrps15 | inactive: 0.652 |
| GGAAUUUCUGGAGAAACUUTT against Lypla2 | inactive: -0.186 |
| GGUCCAAGUCCGAAAAUAUTT against Gpr108 | inactive: 0.442 |
| GAGUGCUACAUUACGUACCTT against Krtap4-16 | inactive: -1.12 |

| Sequence | z-score |
| --- | --- |
| CCUAUAACAUCCACCUUCATT against Yipf3 | inactive: -0.508 |
| GGACAGAUUCGACAAAGAGTT against Olfr1535 | inactive: -0.193 |
| GGUCUCCAAGACGACAUAGTT against Snrnp27 | inactive: -1.92 |
| GCCGUUCUGCUAUCACAACTT against Scrn2 | inactive: -0.531 |
| CCCACAUCAUUGAGAUUCUTT against Olfr1508 | inactive: -1.25 |
| GCUCACCGGGAUCAUUCAATT against Eri3 | inactive: 0.373 |
| GGAGUUAUUAACUGAAGAGTT against Cyp2c55 | inactive: 0.0702 |
| GGACCAUGGAUAUUUAGCATT against Sms | inactive: -0.774 |
| GGAGAAAGUCCCAUUAGAGTT against Vwa5a | inactive: -0.289 |
| GCGGCACACCCUUAUUACATT against Sf1 | inactive: -0.713 |
| CGGAGGUGGCUAUAAAAAUTT against Sik2 | inactive: 0.0967 |
| GUUUUGUUUCAGAGCAGAATT against Olfr900 | inactive: -0.134 |
| GGUGACAGAUGUUUAUGAGTT against Ccdc28b | inactive: -1.91 |
| CGAAAGAUCUAAAUCAGAATT against Map3k4 | inactive: 1.62 |
| GGGCUUCGGGUUAAGAAGGTT against Cd40 | inactive: -1.15 |
| GGUAGAAGAGUCUGAUCAUTT against Sfrp1 | inactive: -0.0589 |
| GCUUCCUCUACGACUACUATT against Grhl3 | inactive: 0.294 |
| GCCCAAGUAUUUUAUUUCATT against Asb2 | inactive: 0.358 |
| GGACAUAAGAGAAUGGUCATT against Lpp | active: 2.07 |
| GCCCUCAUUCAACACAUAATT against Clca1 | inactive: -0.0404 |
| GGUUGAGUUGGAUGACCUUTT against Lsm10 | inactive: -1.91 |
| GGACGAACUGAAGCCCUUATT against Rai2 | inactive: 0.488 |
